Experimental data: patent publication US20250352497A1, “BIGUANIDE BASE COMPOSITIONS, BIGUANIDE BASE PHARMACEUTICAL COMPOSITIONS, AND THEIR PREPARATIONS AND USES” (ADA FORSYTH INSTITUTE, INC., priority 2022, published 2025)
Some entries share one result that the patent states for a list of compounds.

Test system: model microbiome simulating human oral microbiome
Assay: pH of model microbiome (supernatant and saliva-derived biofilm) after treatment in the presence of 2% sucrose
Assay type: cell-based
Details: for pH of the biofilm: 16 hr, 2% sucrose
Procedure: Saliva samples were collected and pooled from 5 healthy volunteers as a model microbiome simulating human oral microbiome, and used to inoculate SHI medium containing different test compositions and controls.
1 mL pooled saliva sample was added to each well of a 24-well plate that had been pre-coated with sterilized, cell-free saliva. The plate was incubated at 37° C. for 16 h in microaerobic conditions (2% O2, 5% CO2, balanced with nitrogen) to allow biofilm formation. After incubation, planktonic portion was collected, optical density was measured at 600 nm and cells were pelleted for DNA isolation. Meanwhile, 1 mL of SHI medium was added to the biofilm portion of each well, biofilm cells were dispersed by scraping and vortex to break the cell aggregates. Optical density was measured at 600 nm and cells were collected for DNA isolation.
Supernatant and biofilms prepared with the model microbiome simulating human oral microbiome according to Example III were treated with embodiments of the CHX base composition (e.g., solution embodiments of the CHX base composition prepared according to Example I (the CHX base solutions); and MSN3 prepared according to Example II(B)(ii)).
Supernatant and biofilms prepared with the model microbiome simulating human oral microbiome according to Example III were treated with CHX base solution (100 μg/mL, prepared according to Example I(A)); MSN3 (100 μg/mL and 125 μg/mL of CHX base, prepared according to Example I(B)); or nothing (control).

## [H]/N=C(\N/C(=N/[H])NCCCCCCNC(=N)NC(=N)Nc1ccc(Cl)cc1)Nc1ccc(Cl)cc1 [CHX base, Chlorhexidine]
CHX base concentration 75 μg/mL or lower
  pH of the biofilm: under 5.5
CHX base concentration of 100 and 125 μg/mL
  pH of the biofilm: exceeded 5.5
Example IV(B): CHX base solution 100 μg/mL, MSN3 100 and 125 μg/mL of CHX base
  pH of treated microbiomes: > 5.5
